Results of single-concentration screens

Amino acid sequences for entries named in this document (tags omitted). Residues count along the entry.
UniProt P9WPC5, whole entry: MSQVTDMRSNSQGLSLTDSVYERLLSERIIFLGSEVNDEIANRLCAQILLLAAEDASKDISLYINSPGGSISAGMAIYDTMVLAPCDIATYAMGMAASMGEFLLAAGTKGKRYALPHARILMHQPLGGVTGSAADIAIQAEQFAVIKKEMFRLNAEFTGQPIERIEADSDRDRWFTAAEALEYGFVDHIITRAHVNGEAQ
UniProt P9WPC3, whole entry partner: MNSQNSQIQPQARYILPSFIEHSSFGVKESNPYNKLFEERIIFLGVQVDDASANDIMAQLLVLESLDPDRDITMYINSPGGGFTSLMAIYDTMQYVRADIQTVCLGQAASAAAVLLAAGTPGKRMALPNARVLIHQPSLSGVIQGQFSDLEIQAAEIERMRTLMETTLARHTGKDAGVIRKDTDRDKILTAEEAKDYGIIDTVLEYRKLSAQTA
UniProt Q8IDJ8, 1-583: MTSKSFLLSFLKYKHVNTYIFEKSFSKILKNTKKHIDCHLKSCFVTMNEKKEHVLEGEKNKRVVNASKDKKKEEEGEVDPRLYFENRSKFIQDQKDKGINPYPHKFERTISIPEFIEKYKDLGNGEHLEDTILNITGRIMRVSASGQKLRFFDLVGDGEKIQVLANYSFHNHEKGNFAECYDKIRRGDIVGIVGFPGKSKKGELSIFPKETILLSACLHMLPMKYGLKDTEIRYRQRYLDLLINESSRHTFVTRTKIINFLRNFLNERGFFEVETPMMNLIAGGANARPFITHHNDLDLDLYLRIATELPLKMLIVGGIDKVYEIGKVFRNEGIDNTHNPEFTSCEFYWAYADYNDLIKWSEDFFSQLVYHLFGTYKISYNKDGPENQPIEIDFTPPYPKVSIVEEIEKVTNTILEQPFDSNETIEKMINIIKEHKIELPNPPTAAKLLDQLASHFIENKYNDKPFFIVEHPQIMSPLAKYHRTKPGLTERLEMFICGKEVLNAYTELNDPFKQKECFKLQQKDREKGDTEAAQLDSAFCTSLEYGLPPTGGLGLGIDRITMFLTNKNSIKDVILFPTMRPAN

A: 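Cell assay of Leishmania donovani living inside macrophages; the read-out is not stated. Tested at 30 µM. Higher reads as stronger inhibition (inferred: compounds with an IC50 in retests scored well above the rest). Of about 69,000 compounds tested this way, about 1,000 (1.5%) reached 50% or more in at least one test.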
B: 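ClpP1P2, Mycobacterium tuberculosis (UniProt P9WPC5 and UniProt P9WPC3). Protease assay of ClpP1P2, read by the AMC dye that it sets free. Tested at 50 µM. Higher reads as stronger inhibition, judged from the few compounds that gave an IC50. Most other retested compounds had strongly negative values. Of about 69,000 compounds tested this way, about 10 (0.015%) reached 50% or more in at least one test.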
C: 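Assay of Toxoplasma gondii numbers, read through their beta-galactosidase reporter with a colour substrate. Compounds at 10 µM. Higher reads as fewer parasites (inferred from which compounds were picked for retests). Of about 67,000 compounds tested this way, about 260 (0.38%) reached 50% or more in at least one test.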
D: 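Lysine-tRNA ligase, Plasmodium falciparum 3D7 (UniProt Q8IDJ8). Enzyme assay of the cytosolic lysyl-tRNA synthetase in 384-well plates, read by luminescence. Concentration: 30 µM. Direction is inferred from only a few compounds that gave an IC50; most scored high, so higher reads as stronger inhibition. Size under these conditions: about 69,000 compounds, about 49 of them at 50% or above in at least one test.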

Each number is a percent effect as filed. How 0% and 100% were set is not recorded. Most values in the screen are low, and negative values occur. This is an unselected part of the compounds tested. Two or more numbers in one place are separate tests of the same structure; such repeats can differ widely.

COCc1ccc(CNc2cncc(-n3cccn3)n2)cc1 read A: 27.73%; B: -742.6%; C: 7.155%; D: -0.08299%. With Clc1cccc(-n2cnnn2)c1N1CCCCC1 the screen gave A: 11.58%; B: -19.3%; C: 2.487%; D: -3.248%. CCC(CNC(=O)C1CC1)(OC)c1ccccc1 (stereo unspecified) read A: -2.244% and -4.18%; B: -2.075%; C: 1.158%; D: 0.5998%. Result for COc1ccc(F)cc1S(=O)(=O)NCC(c1cccn1C)N(C)C (stereo unspecified) was A: 31.61%; B: -9.335%; C: 11.28%; D: 1.75%. Cc1nc(N)nc(C)c1CC(=O)N1CCC2(CC1)OCCCC2O (stereo unspecified) gave A: -15.52%; B: -10.72%; C: 5.973%; D: 0.5014%.

Result for CN1CCN(CC(NCc2cccc(O)c2)c2ccccc2)CC1 (stereo unspecified) was A: 71.12% and 90.13%; B: -10.75%; C: 3.914%; D: 2.3%. With CS(=O)(=O)N1CCc2ncc(CNC(=O)C3CCC3)n2CC1 the screen gave A: -8%; B: -12.86%; C: 15.3%; D: -1.736%. For O=C(O)C(F)(F)F.[H][C@@]12CCC(=O)N(c3cnn(C)c3)[C@]1([H])CCN2C(=O)c1cscn1 the result was A: -1.642%; C: -18.42%. Cc1nn(CCC#N)c(C)c1[C@@H]1C=C[C@@H](NCc2ccc(F)cc2)C1 gave A: 101.5%; B: -1.624%; C: 1.57%; D: 1.284%. With Cc1nccc([C@@H]2C[C@@H]3CCN(Cc4cccs4)C[C@H]3O2)n1 the screen gave B: -14.48%; D: 4.646%.

Result for O=C(Nc1cnc2n1CCCC2)C1CCCN1C1CCNCC1 (stereo unspecified) was A: -23.03% and -14.55%; B: -5.56%; C: 13.41%; D: 3.35%. Cc1ccc(C(=O)NCCCn2cccn2)c(=O)[nH]1 read A: 10.95%; B: 1.915%; C: -3.565%; D: 7.655%. Result for COCC(C)N(C)C(=O)c1nc(S(C)(=O)=O)n2ccccc12 (stereo unspecified) was A: -4.649%; B: 4.617%; C: 5.94%; D: -2.087%. CS(=O)(=O)NC1CCN(C(=O)c2ccc(F)cc2)CC1 read A: 8.768%; B: 6.396%; C: -8.102%; D: -2.06%. Cc1ccc(C(=O)N2CCC3(CCC(=O)N(C(C)C)C3)CC2)c(O)c1 read A: 7.106%; B: -0.01398%; C: 38.63%; D: 3.081%.

For Cc1nc2cc(F)ccc2cc1C(=O)N1CCN(CC(C)O)CC1 (stereo unspecified) the result was A: 21.52%; B: -2.319%; C: 6.913%; D: 4.886%. For CN(C)c1cc(C2CCCN(C(=O)Cn3cc(Cl)cn3)C2)ccn1 (stereo unspecified) the result was A: 7.467%; B: -5.533%; C: 0.9748%; D: 1.094%. Cc1ccc(CNC(=O)c2nc3c(o2)CN(C(=O)c2cccnc2)C3)o1.O=C(O)C(F)(F)F gave A: 0.5357%; C: 1.634%. For O=C1OCCN1CC(=O)N1C[C@H]2CC[C@@H]1CN(C(=O)c1ccccn1)C2 the result was B: -5.422%; D: 4.362%.

From ChEMBL document CHEMBL3988442, “University of Dundee, Small-Polar-MMV Screening Library” (2021).